The exact form of at least one protein or probe is not confirmed. A weaker result is weaker than the reference pair of the same experiment. At least one verdict was read from the data and is not stated in words by the source. Tags and fusion partners may be left off the protein sequences shown.
Target: T1, DExH1 (Arabidopsis thaliana) (UniProt F4ILR7)
T1 sequence (looked up): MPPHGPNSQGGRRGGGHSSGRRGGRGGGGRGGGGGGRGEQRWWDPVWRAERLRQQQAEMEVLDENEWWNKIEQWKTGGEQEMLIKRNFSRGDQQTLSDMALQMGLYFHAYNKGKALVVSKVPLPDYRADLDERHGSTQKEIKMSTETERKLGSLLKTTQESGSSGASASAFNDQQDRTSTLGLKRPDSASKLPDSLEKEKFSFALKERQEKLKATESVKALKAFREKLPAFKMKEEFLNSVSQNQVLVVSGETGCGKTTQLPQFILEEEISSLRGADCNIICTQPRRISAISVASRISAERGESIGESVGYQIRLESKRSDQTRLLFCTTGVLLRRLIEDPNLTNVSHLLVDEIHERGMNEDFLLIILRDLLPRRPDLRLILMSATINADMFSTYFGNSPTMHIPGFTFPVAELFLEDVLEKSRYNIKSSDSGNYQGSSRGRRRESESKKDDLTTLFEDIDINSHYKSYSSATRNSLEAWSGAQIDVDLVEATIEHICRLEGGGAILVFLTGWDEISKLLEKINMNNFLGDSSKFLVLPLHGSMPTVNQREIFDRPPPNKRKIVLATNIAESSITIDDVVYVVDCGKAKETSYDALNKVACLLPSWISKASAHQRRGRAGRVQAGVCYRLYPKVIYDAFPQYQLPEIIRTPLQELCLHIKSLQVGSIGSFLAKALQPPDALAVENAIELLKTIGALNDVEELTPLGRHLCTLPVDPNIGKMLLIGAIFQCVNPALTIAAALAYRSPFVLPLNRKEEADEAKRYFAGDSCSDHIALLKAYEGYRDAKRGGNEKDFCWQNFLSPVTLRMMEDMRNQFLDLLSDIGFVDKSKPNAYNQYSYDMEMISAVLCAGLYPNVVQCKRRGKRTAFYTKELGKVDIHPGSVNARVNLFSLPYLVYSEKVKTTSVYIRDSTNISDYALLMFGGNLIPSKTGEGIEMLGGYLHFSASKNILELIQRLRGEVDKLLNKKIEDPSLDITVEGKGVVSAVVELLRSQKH
Assay: MST
Conditions: 3' tail rG4 preferred, EC50 only in figure; MST: 20 nM FAM-RNA; recombinant protein; residues 1-995; protein details: 6xHis-SUMO removed; label: 5'-FAM

Question: Does “UUUUUUUUUUUUUUUGGGAGGGAAGGGGAAGGGG [SG4 (5' tail rG4)]” bind?
Answer: binds more weakly

— PMC9293640, “Insights into the structural dynamics and helicase-catalyzed unfolding of plant RNA G-quadruplexes”
